Here are results for one substance from publication doi:10.1101/2022.06.19.496704.

Sequences of proteins named here, by UniProt entry; tags and fusion partners are left off.
UniProt Q14203: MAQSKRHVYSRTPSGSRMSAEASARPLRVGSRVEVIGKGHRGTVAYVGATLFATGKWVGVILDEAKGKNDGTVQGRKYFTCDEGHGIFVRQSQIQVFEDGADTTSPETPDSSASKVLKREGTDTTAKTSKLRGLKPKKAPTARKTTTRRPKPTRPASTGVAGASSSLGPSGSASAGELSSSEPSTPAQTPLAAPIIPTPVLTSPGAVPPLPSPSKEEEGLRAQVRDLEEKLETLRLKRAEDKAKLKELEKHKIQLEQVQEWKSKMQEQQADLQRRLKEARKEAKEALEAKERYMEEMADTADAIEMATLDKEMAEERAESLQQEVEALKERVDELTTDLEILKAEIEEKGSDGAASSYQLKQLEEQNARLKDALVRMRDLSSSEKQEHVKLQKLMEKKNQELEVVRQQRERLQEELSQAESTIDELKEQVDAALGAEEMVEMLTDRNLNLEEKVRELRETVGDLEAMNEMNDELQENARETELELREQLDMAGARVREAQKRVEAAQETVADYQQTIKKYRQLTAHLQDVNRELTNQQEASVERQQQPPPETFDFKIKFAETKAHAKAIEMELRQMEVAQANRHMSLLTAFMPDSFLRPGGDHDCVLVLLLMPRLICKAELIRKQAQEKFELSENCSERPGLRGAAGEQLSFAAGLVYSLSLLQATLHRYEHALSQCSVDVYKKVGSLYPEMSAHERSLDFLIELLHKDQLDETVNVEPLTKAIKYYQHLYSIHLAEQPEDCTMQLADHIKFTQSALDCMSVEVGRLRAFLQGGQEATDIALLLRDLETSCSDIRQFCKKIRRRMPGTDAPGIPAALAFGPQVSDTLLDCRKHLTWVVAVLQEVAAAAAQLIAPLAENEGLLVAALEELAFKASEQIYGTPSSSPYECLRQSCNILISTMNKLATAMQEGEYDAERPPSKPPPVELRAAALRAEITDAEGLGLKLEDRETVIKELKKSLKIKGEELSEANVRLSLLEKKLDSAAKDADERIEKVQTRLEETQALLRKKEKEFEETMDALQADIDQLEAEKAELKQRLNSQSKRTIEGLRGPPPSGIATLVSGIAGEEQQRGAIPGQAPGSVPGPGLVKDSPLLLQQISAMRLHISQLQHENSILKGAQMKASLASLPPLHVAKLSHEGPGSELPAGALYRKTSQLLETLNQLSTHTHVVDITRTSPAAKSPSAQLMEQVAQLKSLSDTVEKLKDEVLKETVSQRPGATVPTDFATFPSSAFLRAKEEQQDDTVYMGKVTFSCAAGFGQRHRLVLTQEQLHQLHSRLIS
UniProt P28023: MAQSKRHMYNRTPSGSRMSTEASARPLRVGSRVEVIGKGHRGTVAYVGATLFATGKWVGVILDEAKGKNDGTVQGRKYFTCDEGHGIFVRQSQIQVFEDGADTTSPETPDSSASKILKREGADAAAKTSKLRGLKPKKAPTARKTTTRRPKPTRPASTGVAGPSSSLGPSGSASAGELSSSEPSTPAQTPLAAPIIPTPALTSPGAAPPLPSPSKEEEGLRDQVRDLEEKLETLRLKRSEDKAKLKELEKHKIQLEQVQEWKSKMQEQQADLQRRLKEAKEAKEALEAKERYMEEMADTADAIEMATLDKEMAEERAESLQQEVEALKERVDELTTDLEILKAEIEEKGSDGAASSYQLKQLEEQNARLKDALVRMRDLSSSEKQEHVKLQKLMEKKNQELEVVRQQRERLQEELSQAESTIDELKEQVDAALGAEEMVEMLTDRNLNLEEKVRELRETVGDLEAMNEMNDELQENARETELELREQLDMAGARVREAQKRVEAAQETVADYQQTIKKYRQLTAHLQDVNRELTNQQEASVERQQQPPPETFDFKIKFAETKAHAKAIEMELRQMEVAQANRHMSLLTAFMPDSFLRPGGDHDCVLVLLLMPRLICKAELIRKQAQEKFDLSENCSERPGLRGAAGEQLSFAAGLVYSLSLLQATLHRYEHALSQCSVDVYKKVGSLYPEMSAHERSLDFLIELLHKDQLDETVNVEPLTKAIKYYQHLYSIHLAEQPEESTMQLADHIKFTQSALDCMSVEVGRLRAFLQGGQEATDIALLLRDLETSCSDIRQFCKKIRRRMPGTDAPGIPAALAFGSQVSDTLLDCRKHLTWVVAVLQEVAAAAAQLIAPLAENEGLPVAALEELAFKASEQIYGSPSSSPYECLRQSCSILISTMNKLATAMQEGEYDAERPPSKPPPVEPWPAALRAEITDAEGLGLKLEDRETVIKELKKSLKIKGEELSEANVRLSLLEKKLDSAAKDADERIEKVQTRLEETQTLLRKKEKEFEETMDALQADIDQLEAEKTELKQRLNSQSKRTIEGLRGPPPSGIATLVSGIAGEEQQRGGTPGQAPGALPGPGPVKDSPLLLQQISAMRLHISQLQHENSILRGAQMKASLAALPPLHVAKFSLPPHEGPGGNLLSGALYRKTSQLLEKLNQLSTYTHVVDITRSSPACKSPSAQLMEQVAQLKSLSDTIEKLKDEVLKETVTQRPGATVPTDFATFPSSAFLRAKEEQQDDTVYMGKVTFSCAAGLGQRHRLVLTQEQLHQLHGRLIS
UniProt Q9UJW0: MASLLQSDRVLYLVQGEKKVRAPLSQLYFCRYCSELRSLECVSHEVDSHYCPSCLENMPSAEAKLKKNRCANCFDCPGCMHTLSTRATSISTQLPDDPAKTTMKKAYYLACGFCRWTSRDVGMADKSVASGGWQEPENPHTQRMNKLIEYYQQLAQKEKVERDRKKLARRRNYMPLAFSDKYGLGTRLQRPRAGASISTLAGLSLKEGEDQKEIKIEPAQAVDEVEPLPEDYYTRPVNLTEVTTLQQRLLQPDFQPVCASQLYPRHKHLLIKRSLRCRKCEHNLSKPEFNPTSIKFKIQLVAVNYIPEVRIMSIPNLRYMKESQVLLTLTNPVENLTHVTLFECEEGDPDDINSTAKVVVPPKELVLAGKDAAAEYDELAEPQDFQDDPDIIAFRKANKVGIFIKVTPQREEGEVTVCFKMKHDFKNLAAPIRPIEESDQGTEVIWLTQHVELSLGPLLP

These are yes or no findings as the source states them, for the method shown. Binding seen in cells or lysates may run through a third protein. Some binding calls cover weakened binding; strength is not graded here.

In assay [1] the target is p150^Glued (endogenous, HEK293T) (human (endogenous in HEK293T)) (UniProt Q14203). The experiment in a line: co-IP.
Assay [2] concerns the target AviGFP-tagged p150^Glued (full length) (UniProt P28023). The assay is described as follows: pull-down.

For “p62 (dynactin Arp1-rod protein, endogenous, HEK293T) (from UniProt Q9UJW0 1-460)”, the binding entry in assay [1] and in assay [2] was “binds” each time.
